Assay results as given in PubChem BioAssay (EPA / NIEHS).
This list was built around the results that the source calls inconclusive (neither active nor inactive); the mix of calls is not that of the screen. A potency beside an inconclusive call is a rough fit, not a confirmed value. Activity calls are given as the source filed them. How the source made its calls: active means hit-call score of the fitted dose curve at least 0.9, where 1 is the maximum; inconclusive means response in the unintended direction; inactive means score below 0.9.

Amino acid sequences for entries named in this document (tags omitted). A change or cut given only in a name is not applied to a line headed by its entry.
UniProt P67775, whole entry, looked up: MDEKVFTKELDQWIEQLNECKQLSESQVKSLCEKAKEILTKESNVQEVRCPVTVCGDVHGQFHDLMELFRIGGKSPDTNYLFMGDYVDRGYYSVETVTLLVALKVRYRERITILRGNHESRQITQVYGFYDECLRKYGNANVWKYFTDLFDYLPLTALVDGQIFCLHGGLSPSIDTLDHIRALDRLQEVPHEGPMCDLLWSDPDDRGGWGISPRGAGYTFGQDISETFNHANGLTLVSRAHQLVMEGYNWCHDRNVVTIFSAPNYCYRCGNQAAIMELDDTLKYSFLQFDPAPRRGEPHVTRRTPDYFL
UniProt P60484: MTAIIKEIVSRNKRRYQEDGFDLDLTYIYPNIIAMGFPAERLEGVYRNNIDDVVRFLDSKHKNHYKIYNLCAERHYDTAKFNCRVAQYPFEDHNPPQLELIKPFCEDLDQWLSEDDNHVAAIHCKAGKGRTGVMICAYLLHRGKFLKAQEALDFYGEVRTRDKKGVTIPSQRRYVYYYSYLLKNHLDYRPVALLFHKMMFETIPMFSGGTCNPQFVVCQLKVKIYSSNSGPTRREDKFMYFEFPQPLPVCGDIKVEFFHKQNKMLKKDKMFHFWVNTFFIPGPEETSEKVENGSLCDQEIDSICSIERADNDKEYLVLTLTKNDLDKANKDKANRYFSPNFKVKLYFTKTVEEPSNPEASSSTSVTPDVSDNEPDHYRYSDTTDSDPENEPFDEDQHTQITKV
UniProt P19643, whole entry, looked up: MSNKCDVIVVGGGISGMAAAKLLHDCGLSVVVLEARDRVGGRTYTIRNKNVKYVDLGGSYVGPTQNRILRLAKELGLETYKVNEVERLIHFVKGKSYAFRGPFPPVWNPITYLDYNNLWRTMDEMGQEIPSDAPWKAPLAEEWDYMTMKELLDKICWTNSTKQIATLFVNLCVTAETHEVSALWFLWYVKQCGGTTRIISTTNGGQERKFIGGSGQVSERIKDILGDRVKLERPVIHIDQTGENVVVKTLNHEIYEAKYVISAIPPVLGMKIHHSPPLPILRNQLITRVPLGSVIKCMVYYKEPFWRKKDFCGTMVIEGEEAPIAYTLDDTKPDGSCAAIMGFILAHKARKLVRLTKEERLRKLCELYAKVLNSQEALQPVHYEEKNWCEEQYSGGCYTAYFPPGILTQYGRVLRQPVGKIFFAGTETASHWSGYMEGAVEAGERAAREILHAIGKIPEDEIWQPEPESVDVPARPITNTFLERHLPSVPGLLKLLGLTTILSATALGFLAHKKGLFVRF

Molecular target: PPP2CA (gene 5515) (UniProt P67775)
Assay: NVS_ENZ_hPPP2CA: NovaScreen (NVS) Enzymatic Assay for human Protein Phosphatase 2 Aatalytic subunit Alpha (PPP2CA) (AID 2283199)
In short: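 Cell-free phosphatase activity: fluorescent substrate turnover by recombinant human enzyme, resolved by mobility shift at 1.33 h. Compounds passing the 25 uM duplicate primary screen were rerun in singleton series with a 50 uM top concentration.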

Row | Compound | AC50 | outcome
1 | c1ccc(C(O[C@@H]2CCCN(CCc3ccc4c(c3)OCO4)C2)c2ccccc2)cc1 | inconclusive: 0.209 µM | 
2 | O=C1CCCCCN1 | inconclusive: 25 µM | 
3 | CN1CCC[C@H]1c1cccnc1 |  | inactive
4 | CCCCCCC(CCCCCCCCCCC(=O)OCC(COC(C)=O)OC(C)=O)OC(C)=O (stereo not drawn) | inconclusive: 12.5 µM | 

Molecular target: human Phosphatase and Tensin Homolog (PTEN), PTEN (gene 5728) (UniProt P60484)
Assay: NVS_ENZ_hPTEN: NovaScreen (NVS) Enzymatic Assay for human Phosphatase and Tensin Homolog (PTEN) (AID 2283203)
In short: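 Loss of fluorescent product signal after mobility-shift separation reports PTEN activity, recombinant human enzyme, 1 h after compound addition. Single 25 uM duplicate screen, then concentration-response on actives; DMSO baseline.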

Row | Compound | AC50
5 | CCN(CC)CCNc1ccc(CNC=O)c2sc3ccc(OC)cc3c(=O)c12 | inconclusive: 25 µM
6 | CC(=N[Si](C)(C)C)O[Si](C)(C)C | inconclusive: 0.268 µM
7 | CCOC(C)=O | inconclusive: 6.19 µM
8 | COC(=O)/C=C\C(=O)OC | inconclusive: 25 µM
9 | CCCCCCCCCCCCc1ccccc1S(=O)(=O)O | active: 13.5 µM
10 | O=Nc1ccc(O)cc1 | inconclusive: 0.354 µM
11 | CCC1CCCCC1 | inconclusive: 25 µM
12 | S=C([S-])NCCNC(=S)[S-].[Mn+2] | active: 0.933 µM
13 | C[C@@H]1CCN(C(=O)[C@H](CCCN=C(N)N)NS(=O)(=O)c2cccc3c2NC[C@H](C)C3)[C@@H](C(=O)O)C1 | inconclusive: 0.094 µM

As a short view, 2 of the compounds above:
Row | Compound | AC50
7 | CCOC(C)=O | inconclusive: 6.19 µM
8 | COC(=O)/C=C\C(=O)OC | inconclusive: 25 µM

Molecular target: rat Monoamine Oxidase, MAO-B, Peripheral (MAOBP), Maob (gene 25750) (UniProt P19643)
Assay: NVS_ENZ_rMAOBP: NovaScreen (NVS) Enzymatic Assay for rat Monoamine Oxidase, MAO-B, Peripheral (MAOBP) (AID 2283242)

Row | Compound | outcome | AC50
14 | CCCCCCC(C=O)=Cc1ccccc1 | inactive | 
15 | Cc1ccc(-c2cc(C(F)(F)F)nn2-c2ccc(S(N)(=O)=O)cc2)cc1 |  | inconclusive: 6.04 µM
16 | C=CCCCCCCCCC(=O)O |  | inconclusive: 25 µM
17 | S=C([S-])NCCNC(=S)[S-].[Mn+2] | inactive | 
18 | NCc1cccc(C2CCN(C(=O)c3ccc(C#Cc4ccccc4F)o3)CC2)c1 |  | active: 38 µM
